Data taken from paper PMC3585288.

Protein sequences, listed by entry. Tags and fused reporters are not part of them. Residues count along the entry.
UniProt P02769, 25-607: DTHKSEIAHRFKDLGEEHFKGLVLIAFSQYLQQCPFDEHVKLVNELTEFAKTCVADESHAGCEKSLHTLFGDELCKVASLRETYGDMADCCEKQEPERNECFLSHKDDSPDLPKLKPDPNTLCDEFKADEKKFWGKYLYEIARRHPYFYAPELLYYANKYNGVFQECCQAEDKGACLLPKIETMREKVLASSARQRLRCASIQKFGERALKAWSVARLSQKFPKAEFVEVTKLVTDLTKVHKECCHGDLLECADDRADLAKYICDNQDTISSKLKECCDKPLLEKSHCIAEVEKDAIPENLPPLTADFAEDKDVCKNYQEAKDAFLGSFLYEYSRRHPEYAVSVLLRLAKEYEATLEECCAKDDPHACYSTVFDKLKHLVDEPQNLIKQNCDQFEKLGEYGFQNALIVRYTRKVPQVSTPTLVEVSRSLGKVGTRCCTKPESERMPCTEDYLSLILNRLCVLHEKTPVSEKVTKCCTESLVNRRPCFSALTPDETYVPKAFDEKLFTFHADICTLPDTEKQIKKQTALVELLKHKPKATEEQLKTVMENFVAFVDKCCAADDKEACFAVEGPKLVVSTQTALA

Legend:
[1] = biological target: T1, Alba1 (Ape10b1) (Aeropyrum pernix) (UniProt Q9YAW1); assay: ITC; conditions: 25 C, ITC: 50 mM NaH2PO4, pH 7.0, 25 C, recombinant protein, residues 1-94
T1 sequence (looked up): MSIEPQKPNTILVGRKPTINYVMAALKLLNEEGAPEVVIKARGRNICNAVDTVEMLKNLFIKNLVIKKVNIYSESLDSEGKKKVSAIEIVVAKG

[2] = biological target: bovine serum albumin (Bos taurus) (UniProt P02769); assay: SPR; conditions: negative control, 6.0 uM; SPR: 50 mM NaH2PO4, 150 mM NaCl, 0.005% P20, pH 7.0, 25 C; commercial protein; label: 5'-biotin on one strand (S1)

Sequence: ACGTACGTACGTACGTACGTACGTACGTACGTACGTACGTACGTACGT (double strand) [B-DNA]
- Ka ([1]; pH 7.0, n=0.11 per bp): 0.8 10^6 M-1

Sequence: CCCCCCCGTGAAAGCCTAGACAGCGAGGCCCCCCC (double strand) [SPRspecAP]
- binding result [2]: no binding

Sequence: CCCGGGCCCGGGCCCGGGCCCGGGCCCGGGCCCGGGCCCGGGCCCGGG (double strand) [A-DNA]
- Ka ([1]; pH 7.0, n=0.15 per bp): 2.4 10^6 M-1

For part of these data: A negative result means that nothing was seen under these conditions. For part of these data: Construct, isoform or probe ends are uncertain for at least one entry. For part of these data: Protein sequences can lack the tags named with them.
